Among the data in paper PMC12119004 are binding values, retold here.

The assay concerns the target T1, His-tagged MIC25 (UniProt Q9BRQ6).
T1 sequence: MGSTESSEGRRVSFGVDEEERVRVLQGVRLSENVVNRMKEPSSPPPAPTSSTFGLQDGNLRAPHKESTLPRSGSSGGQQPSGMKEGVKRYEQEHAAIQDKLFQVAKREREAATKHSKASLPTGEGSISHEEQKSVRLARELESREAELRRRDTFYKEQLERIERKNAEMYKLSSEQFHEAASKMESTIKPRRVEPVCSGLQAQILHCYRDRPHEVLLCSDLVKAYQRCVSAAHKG
The assay can be described thus: affinity purification with mass spectrometry; His-tagged MIC25 as bait on Ni-NTA beads; pull-down samples digested in gel and compared (MIC25 background excluded) by mass spectrometry; sample pulled down not stated; only the target purified.

Results are given in words; binding and its absence hold for the method and conditions named. Binding seen in cells or lysates may run through a third protein. Here binding means that the protein was enriched with, or labelled near, the bait; the list need not be complete. Sequences can lack the tags named with a protein.

As for CHCH3, the binding entry is on record as “binds”.
